Laboratory results reported in PubChem BioAssay AID1117319 (Southern Research Institute, 2015).
In all, about 260,000 compounds went through this assay and about 1,500 (0.58%) were called active. This list was built around the results that the source calls inconclusive (neither active nor inactive); the mix of calls is not that of the screen.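 The calls were made as follows: active = inhibition above a set limit at one or more doses, reproduced on every date tested; inconclusive = results disagree between test dates, or hit never tested in dose response; inactive = the rest.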

Protein sequences, listed by entry. Tags and fused reporters are not part of them. Lines headed by an entry give the natural chain unless they say otherwise; changes in a name come on top.
UniProt P69720: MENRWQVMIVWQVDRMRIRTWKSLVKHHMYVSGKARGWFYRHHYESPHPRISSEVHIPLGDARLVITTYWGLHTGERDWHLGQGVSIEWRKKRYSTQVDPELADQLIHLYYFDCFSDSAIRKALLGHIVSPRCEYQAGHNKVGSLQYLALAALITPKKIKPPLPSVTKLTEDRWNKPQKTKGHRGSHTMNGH
UniProt P69721: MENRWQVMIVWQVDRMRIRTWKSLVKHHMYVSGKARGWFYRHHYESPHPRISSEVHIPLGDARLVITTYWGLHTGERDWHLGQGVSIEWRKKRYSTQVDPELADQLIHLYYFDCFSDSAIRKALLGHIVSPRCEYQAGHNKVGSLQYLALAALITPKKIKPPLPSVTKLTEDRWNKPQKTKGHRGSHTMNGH
UniProt P69722: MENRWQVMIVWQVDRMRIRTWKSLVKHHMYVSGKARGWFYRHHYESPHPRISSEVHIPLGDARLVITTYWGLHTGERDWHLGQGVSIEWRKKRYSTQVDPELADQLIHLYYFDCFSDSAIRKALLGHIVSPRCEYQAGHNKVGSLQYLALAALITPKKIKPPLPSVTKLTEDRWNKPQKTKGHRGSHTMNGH
UniProt P69723: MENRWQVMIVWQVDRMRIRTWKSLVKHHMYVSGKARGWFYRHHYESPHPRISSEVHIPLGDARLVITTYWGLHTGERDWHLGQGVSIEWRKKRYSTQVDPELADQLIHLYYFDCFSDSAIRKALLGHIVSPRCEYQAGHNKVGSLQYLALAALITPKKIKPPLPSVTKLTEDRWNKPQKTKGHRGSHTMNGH
UniProt Q9HC16: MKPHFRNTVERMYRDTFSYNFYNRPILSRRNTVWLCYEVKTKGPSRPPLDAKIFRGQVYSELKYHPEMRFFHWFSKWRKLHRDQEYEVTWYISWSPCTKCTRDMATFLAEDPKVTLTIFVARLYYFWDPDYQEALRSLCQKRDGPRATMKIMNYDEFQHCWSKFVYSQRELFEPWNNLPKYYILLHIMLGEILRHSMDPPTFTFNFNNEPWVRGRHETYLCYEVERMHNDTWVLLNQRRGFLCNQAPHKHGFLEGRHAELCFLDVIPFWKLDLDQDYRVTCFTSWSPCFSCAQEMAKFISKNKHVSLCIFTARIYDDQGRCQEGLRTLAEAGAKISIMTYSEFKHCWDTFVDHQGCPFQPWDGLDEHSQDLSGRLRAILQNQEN

molecular target: Virion infectivity factor (Human immunodeficiency virus type 1 group M subtype B (isolate BH10)) + Virion infectivity factor (Human immunodeficiency virus type 1 group M subtype B (isolate BRU/LAI)) + Virion infectivity factor (Human immunodeficiency virus type 1 group M subtype B (isolate PCV12)) + Virion infectivity factor (Human immunodeficiency virus type 1 group M subtype B (isolate HXB2)) + DNA dC->dU-editing enzyme APOBEC-3G (Homo sapiens) (UniProt P69720+P69721+P69722+P69723+Q9HC16); test: inhibitors of Vif binding to APOBEC3G peptide, primary screen, biochemical, TR-FRET, GST-Vif 1-94, biotin-A3G peptide, dose response retest (AID 1117319); details: active compounds read high;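 also: Vif residues 1-94 fused to GST binding biotinylated APOBEC3G peptide 110-148; 0% = full assay without inhibitor and 100% = GST in place of GST-Vif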

| Compound | inhibition |
| --- | --- |
| COc1ccc(/C=C/C(=O)NCc2ccccn2)cc1OC | inconclusive: 41.9% |
| Cc1ccc(NC(=O)CN(C)C(=O)CCC(=O)c2cccs2)cc1 | inconclusive: 39.3% |
| O=c1[nH]cnc2c1N=C(c1cccc([N+](=O)[O-])c1)CC(c1ccccc1)N2 (centres undefined) | inconclusive: 38.5% |
| O=C(CSc1nnc(-c2ccc(Cl)cc2)n1Cc1ccco1)NCc1ccc2c(c1)OCO2 | inconclusive: 38.7% |
| Cc1cc(NC(=O)CSc2nnc(C3CC3)n2C)no1 | inconclusive: 52.7% |
| COc1cc(C2N(c3ccccn3)C(=O)C3CCCN32)cc(OC)c1OC (centres undefined) | inactive: -8.96% |
| CCCn1c(SCC(=O)Nc2cccc(C(=O)OCC)c2)nnc1-c1ccoc1C | inconclusive: 51.9% |
| O=C(N/C(=C/c1ccco1)C(=O)N1CCc2ccccc21)c1ccco1 | inconclusive: 41.2% |
| COc1ccccc1OCCOCCOc1c(C)cc(C)cc1Br | inconclusive: 48.5% |
| COc1cc(C2C(C#N)=C(N)N(c3cccnc3)C3=C2C(=O)CC(C)(C)C3)ccc1O (centres undefined) | inconclusive: 35.6% |
| FCCCOc1ccc(/C=N/OCc2ccc(Cl)cc2)cc1 | inconclusive: 34% |
| CC1(C)Cc2nc3oc4c(=O)n(CC(=O)Nc5cccc(Cl)c5)cnc4c3cc2CO1 | inconclusive: 43.3% |
| Cc1ccc(Cl)cc1NC(=S)N(Cc1cccs1)C1CCCC1 | inconclusive: 36.8% |
| CC1(C)CC(=O)C(C(=O)CCCCC(=O)C2C(=O)CC(C)(C)CC2=O)C(=O)C1 | inconclusive: 56.5% |
| CCN(CC)S(=O)(=O)c1ccc(NC(=O)CN(c2cccc(C)c2)S(C)(=O)=O)cc1 | inconclusive: 35.9% |
| COc1nnc(-c2ccc(N3CCOCC3)c(NC(=O)C3CCCCC3)c2)c2ccccc12 | inconclusive: 49% |
| N#CCSc1nc2ccc(N3CCOCC3)cc2c(=O)n1CCc1ccccc1 | inconclusive: 35% |
| CC(=O)OCCCNc1cc(SCc2ccco2)c2nonc2c1[N+](=O)[O-] | inconclusive: 38.9% |
| O=C(/C=C/c1ccccc1)Oc1coc(CSc2ncccn2)cc1=O | inconclusive: 35% |
| COc1ccc2c(C=Nc3c(C)n(C)n(-c4ccccc4)c3=O)c(O)n(Cc3ccco3)c(=O)c2c1 | inconclusive: 33% |
| O=C1CCC([N+](=O)[O-])C(c2cc3c(cc2Br)OCO3)N1 (centres undefined) | inconclusive: 44.8% |
| COc1ccc(C(=O)Cn2nnc(-c3ccccc3-n3cnnn3)n2)cc1 | inconclusive: 35.7% |
| Cc1cc(C)cc(OCC(=O)N(Cc2ccc(N(C)C)cc2)C2CCS(=O)(=O)C2)c1 (centres undefined) | inconclusive: 42.2% |
| O=C(O)c1cccc(S(=O)(=O)Nc2ccc3[nH]c(=O)[nH]c3c2)c1 | inconclusive: 33.9% |
| O=C1C2CCCCN2C(=O)N1CCCCN1CCN(c2ccc([N+](=O)[O-])cc2)CC1 (centres undefined) | inconclusive: 59.8% |
| O=C(CSc1nnc(-c2cccnc2)n1-c1ccccc1)N1CCN(c2ccc(F)cc2)CC1 | inconclusive: 33.3% |
| CCCCN(CC)CCCNC(=S)Nc1ccc2nc3n(c(=O)c2c1)CCCCC3 | inconclusive: 43.6% |

Taken from above:
In inhibition, `O=c1[nH]cnc2c1N=C(c1cccc([N+](=O)[O-])c1)CC(c1ccccc1)N2` (centres undefined) has the entry inconclusive: 38.5%
In inhibition, `COc1nnc(-c2ccc(N3CCOCC3)c(NC(=O)C3CCCCC3)c2)c2ccccc12` has the entry inconclusive: 49%
In inhibition, `COc1ccc(/C=C/C(=O)NCc2ccccn2)cc1OC` has the entry inconclusive: 41.9%
In inhibition, `O=C(N/C(=C/c1ccco1)C(=O)N1CCc2ccccc21)c1ccco1` has the entry inconclusive: 41.2%

Further records:

| Compound | inhibition |
| --- | --- |
| COc1cccc(/C=N/NC(=O)C(=O)NCc2cccnc2)c1 | inconclusive: 60.5% |
| COC(=O)c1ccc(NC(=O)CN(c2ccc(C)cc2)S(=O)(=O)c2c(C)nn(C)c2C)cc1 | inconclusive: 34.9% |
| Cc1ccc(C(=O)N/N=C/c2ccc(-c3ccccc3[N+](=O)[O-])o2)cn1 | inconclusive: 47.9% |
| CSc1c(CC(=O)Nc2ccccc2Cl)n(Cc2ccccc2)c2ccccc12 | inconclusive: 52.8% |
| O=c1cc(-c2ccccc2)[nH][nH]1 | inconclusive: 45.4% |
| O=C(COC(=O)CCN1C(=O)/C(=C\C=C\c2ccccc2)SC1=S)Nc1cc(F)ccc1F | inconclusive: 44.4% |
| S=c1[nH]nc(-c2cc(-c3ccco3)[nH]n2)n1-c1ccccc1Cl | inconclusive: 51.1% |
| CCOC(=O)c1ccccc1NC(=O)c1ccc(F)cc1 | inconclusive: 59.1% |
| CC(C)C(=O)NC(Nc1cc(C(F)(F)F)ccc1Cl)C(Cl)(Cl)Cl (centres undefined) | inconclusive: 47.5% |
| Nc1ccc(C23CC4CC(CC(C4)C2)C3)cc1 | inconclusive: 33.9% |
| CC(C(=O)c1c[nH]c(C(=O)N=CN(C)C)c1)c1ncc(C(F)(F)F)cc1Cl (centres undefined) | inconclusive: 41.1% |
| O=C(NCCc1ccc(Cl)cc1)c1ccc2nc[nH]c2c1 | inconclusive: 45.3% |
| Cc1nnc(SCC(=O)Nc2sc3c(c2C#N)CCCC3)[nH]c1=O | inconclusive: 42.1% |
| CCOC(=O)c1ccc(NC(=O)CCNc2c(N3CCCC3)c(=O)c2=O)cc1 | inconclusive: 47.9% |
| O=C1CCc2cc(S(=O)(=O)N3CCN(c4cccc(C(F)(F)F)c4)CC3)ccc2N1 | inconclusive: 34.6% |
| COc1ccc(C2OC34CCCCC3C(C#N)(C#N)C2(C#N)C(=N)O4)cc1 (centres undefined) | inconclusive: 41.2% |
| O=S(=O)(Cc1cccc(F)c1)c1c[nH]c2ccccc12 | inconclusive: 38.7% |
| COc1ccc(NC(=O)CSCc2ccc(C#N)cc2)c(OC)c1 | inconclusive: 38.1% |
| COc1ccc(-c2c(-c3ccc(O)cc3O)n[nH]c2C)cc1OC | inactive: 6.2% |
| CC1=NN(c2ccccc2)C(=O)/C1=C\c1cc(C)n(C)c1C | inactive: 6.69% |
| Cc1ccc(OCc2nc3ccccc3n2C)cc1 | inconclusive: 38% |
| Cc1ccc(-n2c(SCC(=O)Nc3cc(C)on3)nc3ccccc3c2=O)cc1 | inconclusive: 40.3% |
| CC1=CC(c2ccccc2)n2nc(NC(=O)CCC(=O)O)nc2N1 (centres undefined) | inconclusive: 38.4% |
| CCC(c1nnnn1Cc1ccc2c(c1)OCO2)N1CCN(c2ccc(F)cc2)CC1 (centres undefined) | inconclusive: 37.1% |
| CCOC(=O)c1c(NC(=O)COC(=O)c2ccccn2)sc2c1CCC2 | inconclusive: 40.8% |
| CCOC(=O)CCc1c(C)c2ccc(OCc3cc([N+](=O)[O-])ccc3OC)c(C)c2oc1=O | inconclusive: 51% |
| Cc1cc(C(=O)N(C)Cc2c(F)cccc2Cl)c2ccccc2n1 | inactive: -2.57% |
